Test results as given in publication PMC6454061.
Substitutions are numbered along the chain they refer to. In names and notes the source's numbering stands. Results are given in words; binding and its absence hold for the method and conditions named. In cells and extracts the contact can be indirect. Some binding calls cover weakened binding; strength is not graded here.

The chains behind the UniProt entries cited, without tags or fusion partners.
UniProt Q9NS00: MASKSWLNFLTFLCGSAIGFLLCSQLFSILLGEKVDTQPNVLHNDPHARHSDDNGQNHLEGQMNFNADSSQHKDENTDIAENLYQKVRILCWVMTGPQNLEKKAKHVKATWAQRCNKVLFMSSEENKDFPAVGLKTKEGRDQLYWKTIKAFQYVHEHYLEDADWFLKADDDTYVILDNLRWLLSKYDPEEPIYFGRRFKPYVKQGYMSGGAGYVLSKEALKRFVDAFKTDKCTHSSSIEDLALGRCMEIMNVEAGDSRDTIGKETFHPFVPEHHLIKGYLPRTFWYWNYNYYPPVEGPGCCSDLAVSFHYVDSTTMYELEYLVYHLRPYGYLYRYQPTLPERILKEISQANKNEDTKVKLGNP

What was measured:
Test in all cases: FRET or BRET; mVenus- and mCherry-tagged enzyme constructs co-transfected in COS-7 cells, fixed with 4% PFA, FRET quantified by high content imaging (Operetta); normoxic cells as the reference (100%); cells also compared after moderate hypoxia (5% O2, 4-24 h) or 3-10 mM DTT; mutants given as percent of wild type
[1] = target: α-2,6-sialyltransferase ST6Gal-I, wild type (human) (UniProt P15907)
[2] = target: T1, β1,4-galactosyltransferase B4GalT-I (UniProt P15291)
T1 sequence: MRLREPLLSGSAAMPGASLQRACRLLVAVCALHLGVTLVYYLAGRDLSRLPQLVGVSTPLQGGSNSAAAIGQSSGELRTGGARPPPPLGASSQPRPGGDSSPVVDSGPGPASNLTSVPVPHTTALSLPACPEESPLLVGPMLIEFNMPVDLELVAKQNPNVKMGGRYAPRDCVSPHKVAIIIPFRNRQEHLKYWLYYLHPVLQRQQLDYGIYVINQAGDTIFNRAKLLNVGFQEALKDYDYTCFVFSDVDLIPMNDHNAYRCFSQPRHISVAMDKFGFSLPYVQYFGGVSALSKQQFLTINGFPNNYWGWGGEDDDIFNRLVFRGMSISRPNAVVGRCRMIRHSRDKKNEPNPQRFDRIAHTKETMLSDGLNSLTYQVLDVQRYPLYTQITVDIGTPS

[3] = target: ST6Gal-I cysteine mutant C353A (human) (UniProt P15907)
[4] = target: ST6Gal-I cysteine mutant C406A (human) (UniProt P15907)
[5] = target: ST6Gal-I double cysteine mutant (C353A-C406A) (human) (UniProt P15907)
[6] = target: T2, GlcNAcT-II (UniProt Q10469)
T2 sequence: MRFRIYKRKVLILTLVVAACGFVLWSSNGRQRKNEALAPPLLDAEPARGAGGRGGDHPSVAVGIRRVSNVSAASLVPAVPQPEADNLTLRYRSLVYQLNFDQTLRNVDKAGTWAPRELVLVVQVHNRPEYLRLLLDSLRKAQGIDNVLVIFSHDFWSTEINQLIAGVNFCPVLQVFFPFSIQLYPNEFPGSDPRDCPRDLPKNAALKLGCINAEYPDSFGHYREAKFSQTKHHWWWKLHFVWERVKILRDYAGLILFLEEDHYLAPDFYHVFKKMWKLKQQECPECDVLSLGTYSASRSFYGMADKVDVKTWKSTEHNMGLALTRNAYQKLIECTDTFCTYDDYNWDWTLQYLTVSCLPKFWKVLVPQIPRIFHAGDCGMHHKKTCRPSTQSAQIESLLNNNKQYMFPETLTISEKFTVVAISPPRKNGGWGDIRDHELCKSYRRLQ

[7] = target: C1GalT-I (UniProt Q9NS00)
[8] = target: T3, C2GNT-1 (UniProt Q02742)
T3 sequence: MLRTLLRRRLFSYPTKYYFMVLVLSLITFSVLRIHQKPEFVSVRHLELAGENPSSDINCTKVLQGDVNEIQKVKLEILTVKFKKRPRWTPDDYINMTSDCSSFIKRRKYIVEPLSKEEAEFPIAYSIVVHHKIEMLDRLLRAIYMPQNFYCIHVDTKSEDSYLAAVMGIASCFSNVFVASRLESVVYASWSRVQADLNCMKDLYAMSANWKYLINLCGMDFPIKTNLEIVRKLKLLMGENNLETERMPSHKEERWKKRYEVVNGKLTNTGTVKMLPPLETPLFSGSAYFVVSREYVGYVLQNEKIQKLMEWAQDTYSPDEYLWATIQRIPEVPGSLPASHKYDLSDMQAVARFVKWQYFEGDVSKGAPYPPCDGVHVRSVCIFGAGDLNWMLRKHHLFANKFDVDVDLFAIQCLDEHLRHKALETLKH

[9] = target: T4, C3GNT-1 (UniProt Q6ZMB0)
T4 sequence: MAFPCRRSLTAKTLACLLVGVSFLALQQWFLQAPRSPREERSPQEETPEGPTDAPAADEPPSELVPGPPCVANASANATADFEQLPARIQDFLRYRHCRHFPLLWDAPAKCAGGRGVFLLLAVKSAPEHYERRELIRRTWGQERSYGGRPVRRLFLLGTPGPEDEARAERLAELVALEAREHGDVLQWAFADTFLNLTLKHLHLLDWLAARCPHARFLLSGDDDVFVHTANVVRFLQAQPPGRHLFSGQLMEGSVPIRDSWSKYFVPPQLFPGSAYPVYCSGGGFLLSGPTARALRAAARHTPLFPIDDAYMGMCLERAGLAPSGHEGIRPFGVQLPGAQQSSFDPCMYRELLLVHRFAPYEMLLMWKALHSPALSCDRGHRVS

B1: α-2,6-sialyltransferase ST6Gal-I, wild type (enzyme, UniProt P15907 89-406)
chain: PEASFQVWNKDSSSKNLIPRLQKIWKNYLSMNKYKVSYKGPGPGIKFSAEALRCHLRDHVNVSMVEVTDFPFNTSEWEGYLPKESIRTKAGPWGRCAVVSSAGSLKSSQLGREIDDHDAVLRFNGAPTANFQQDVGTKTTIRLMNSQLVTTEKRFLKDSLYNEGILIVWDPSVYHSDIPKWYQNPDYNFFNNYKTYRKLHPNQPFYILKPQMPWELWDILQEISPEEIQPNPPSSGMLGIIIMMTLCDQVDIYEFLPSKRKTDVCYYYQKFFDSACTMGAYHPLLYEKNLVKHLNQGTDEDIYLLGKATLPGFRTIHC
With B1 the binding [1] was “binds” and the binding [2] was “binds”.

B2: ST6Gal-I cysteine mutant C353A (enzyme, UniProt P15907 89-406)
chain: B1 chain with C265A
B2 was tested, and the binding [3] was “binds” and the binding [2] was “binds”.

B3: ST6Gal-I cysteine mutant C406A (enzyme, UniProt P15907 89-406)
chain: B1 chain with C318A
B3 was tested, and the binding [4] was “binds” and the binding [2] was “binds”.

B4: ST6Gal-I double cysteine mutant (C353A-C406A) (enzyme, UniProt P15907 89-406)
chain: B1 chain with C265A, C318A
In the case of B4, the binding [5] is reported as “binds”.

B5: ST3Gal-III sialyltransferase (enzyme, UniProt Q11203 1-375)
chain: MGLLVFVRNLLLALCLFLVLGFLYYSAWKLHLLQWEEDSNSVVLSFDSAGQTLGSEYDRLGFLLNLDSKLPAELATKYANFSEGACKPGYASALMTAIFPRFSKPAPMFLDDSFRKWARIREFVPPFGIKGQDNLIKAILSVTKEYRLTPALDSLRCRRCIIVGNGGVLANKSLGSRIDDYDIVVRLNSAPVKGFEKDVGSKTTLRITYPEGAMQRPEQYERDSLFVLAGFKWQDFKWLKYIVYKERVSASDGFWKSVATRVPKEPPEIRILNPYFIQEAAFTLIGLPFNNGLMGRGNIPTLGSVAVTMALHGCDEVAVAGFGYDMSTPNAPLHYYETVRMAAIKESWTHNIQREKEFLRKLVKARVITDLSSGI
With B5 the binding [2] was “binds”.

B6: GlcNAcT-I (enzyme, UniProt P26572 1-445)
chain: MLKKQSAGLVLWGAILFVAWNALLLLFFWTRPAPGRPPSVSALDGDPASLTREVIRLAQDAEVELERQRGLLQQIGDALSSQRGRVPTAAPPAQPRVPVTPAPAVIPILVIACDRSTVRRCLDKLLHYRPSAELFPIIVSQDCGHEETAQAIASYGSAVTHIRQPDLSSIAVPPDHRKFQGYYKIARHYRWALGQVFRQFRFPAAVVVEDDLEVAPDFFEYFRATYPLLKADPSLWCVSAWNDNGKEQMVDASRPELLYRTDFFPGLGWLLLAELWAELEPKWPKAFWDDWMRRPEQRQGRACIRPEISRTMTFGRKGVSHGQFFDQHLKFIKLNQQFVHFTQLDLSYLQREAYDRDFLARVYGAPQLQVEKVRTNDRKELGEVRVQYTGRDSFKAFAKALGVMDDLKSGVPRAGYRGIVTFQFRGRRVHLAPPLTWEGYDPSWN
In the case of B6, the binding [6] is reported as “binds”.

B7: ppGalNAcT-6 (enzyme, UniProt Q8NCL4 1-622)
chain: MRLLRRRHMPLRLAMVGCAFVLFLFLLHRDVSSREEATEKPWLKSLVSRKDHVLDLMLEAMNNLRDSMPKLQIRAPEAQQTLFSINQSCLPGFYTPAELKPFWERPPQDPNAPGADGKAFQKSKWTPLETQEKEEGYKKHCFNAFASDRISLQRSLGPDTRPPECVDQKFRRCPPLATTSVIIVFHNEAWSTLLRTVYSVLHTTPAILLKEIILVDDASTEEHLKEKLEQYVKQLQVVRVVRQEERKGLITARLLGASVAQAEVLTFLDAHCECFHGWLEPLLARIAEDKTVVVSPDIVTIDLNTFEFAKPVQRGRVHSRGNFDWSLTFGWETLPPHEKQRRKDETYPIKSPTFAGGLFSISKSYFEHIGTYDNQMEIWGGENVEMSFRVWQCGGQLEIIPCSVVGHVFRTKSPHTFPKGTSVIARNQVRLAEVWMDSYKKIFYRRNLQAAKMAQEKSFGDISERLQLREQLHCHNFSWYLHNVYPEMFVPDLTPTFYGAIKNLGTNQCLDVGENNRGGKPLIMYSCHGLGGNQYFEYTTQRDLRHNIAKQLCLHVSKGALGLGSCHFTGKNSQVPKDEEWELAQDQLIRNSGSGTCLTSQDKKPAMAPCNPSDPHQLWLFV
For B7, the binding [7] was “binds”, the binding [8] was “binds” and the binding [9] was “binds”.

B8: β1,4-galactosyltransferase B4GalT-I (enzyme, UniProt P15291 1-398)
chain: T1 sequence
For B8, the binding [2] was “binds”.
